We go through nine sequences from article PMC4814116, “Design of Novel Relaxase Substrates Based on Rolling Circle Replicases for Bioconjugation to DNA Nanostructures”.

For some assays here: A negative result means that nothing was seen under these conditions. Protein sequences can lack the tags named with them. For some assays here: The exact form of at least one protein or probe is not confirmed. For some assays here: At least one verdict was read from the data and is not stated in words by the source. For some assays here: The direction of at least one scale is not stated here.

Data set [1] deals with T1, TrwCR (N-terminal relaxase domain of TrwC) (UniProt Q47673).
T1 sequence (looked up): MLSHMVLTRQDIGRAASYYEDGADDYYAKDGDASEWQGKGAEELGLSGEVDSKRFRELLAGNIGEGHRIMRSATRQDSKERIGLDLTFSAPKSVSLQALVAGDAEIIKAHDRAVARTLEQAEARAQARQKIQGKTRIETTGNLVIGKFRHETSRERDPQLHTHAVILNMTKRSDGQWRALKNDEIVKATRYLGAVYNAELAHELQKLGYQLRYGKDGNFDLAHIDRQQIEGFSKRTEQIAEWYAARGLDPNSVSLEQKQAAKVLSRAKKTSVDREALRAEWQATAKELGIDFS
Nature of the data set: SDS-PAGE covalent complex. As to conditions: 5 mM Mg2+, Covalent complex: 15 uM oligo, 37 C 1 h, 5 mM MgCl2, 15 uM EDTA, TrwCR 10 mM Tris pH 7.6, 375 mM NaCl, MobAR 25 mM Tris pH 8.0, 225 mM NaCl, TraIR 10 mM Tris pH 7.6, recombinant protein, residues 1-293, folded or branched ….

Data set [2] concerns the target T1, TrwCR (N-terminal relaxase domain of TrwC). Nature of the data set: gel filtration. As to conditions: EDTA, sole protein-DNA band, Covalent complex: 15 uM oligo, 37 C 1 h, 5 mM MgCl2, 15 uM EDTA, MobAR 25 mM Tris pH 8.0, 225 mM NaCl, TraIR 10 mM Tris pH 7.6, recombinant protein, residues 1-293.
For data set [3], the target named is T2, TraIR (N-terminal domain of TraI) (plasmid RP4) (UniProt Q00191).
T2 sequence (looked up, limits assumed): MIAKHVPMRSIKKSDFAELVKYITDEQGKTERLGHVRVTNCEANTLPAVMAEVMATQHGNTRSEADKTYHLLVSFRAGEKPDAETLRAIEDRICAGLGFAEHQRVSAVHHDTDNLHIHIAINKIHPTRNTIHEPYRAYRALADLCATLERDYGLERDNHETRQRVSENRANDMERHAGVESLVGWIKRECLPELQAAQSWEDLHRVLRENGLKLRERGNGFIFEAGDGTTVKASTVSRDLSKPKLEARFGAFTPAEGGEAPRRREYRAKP
Nature of the data set: SDS-PAGE covalent complex. As to conditions: 5 mM Mg2+, no cleavage; Covalent complex: 15 uM oligo, 37 C 1 h, 5 mM MgCl2, 15 uM EDTA; TrwCR 10 mM Tris pH 7.6, 375 mM NaCl; MobAR 25 mM Tris pH 8.0, 225 mM NaCl; TraIR 10 mM Tris pH 7.6; recombinant protein; folded or branched DNA.

In data set [4] the target is T1, TrwCR (N-terminal relaxase domain of TrwC). Nature of the data set: EMSA. Particulars: 1 mM EDTA, single shifted band, EC50 same as H(14+14), value not given, EMSA: 50 nM oligo, 10 mM Tris pH 7.6, 100 mM NaCl, RT 30 min, recombinant protein, residues 1-293, label: IRDye800, folded or branched DNA. Background: Mobility shift assays separate free from complexed probe on a gel.

Where [5] appears, read: TrwCR 10 mM Tris pH 7.6, 375 mM NaCl, folded or branched ….

As for “ATTGTCTATAGCCCAGATCGCACCGAAAGGTGCG [R388 R(7+27)]”, the binding signal (% covalent complex) in data set [1] was 18.3.

On to “AACCGGCTAGGTGCGTATTGTCTATAGCCCACGCACCTAGCCGGTT [R388 H(23+23)]”, for which, in data set [1] (not replicated), the binding signal (% covalent complex) was found to be 11.2.

Consider “CCCAATGCGCGGTGCGTATTGTCTATAGCCCACGCACCGCGCATTGGG [R388 H(24+24)]”, for which, in data set [1] (not replicated), the binding signal (% covalent complex) is 12.4. For the same sequence, in data set [2] (setting [5]), the binding result was “binds”.

Consider “CTTCACCTATCCTGCCCGGCTGGTGAAG [RP4 HP(14+14)]”, for which the binding result in data set [3] was “no binding”.

Regarding “AACCGGCTAGGTGCGTATTGTCTATAGCCCAGATCGCACCTAGCCGGTT [R388 H(23+26)]”, the binding signal (% covalent complex) in data set [1] (not replicated) came to 13.5.

Take “CGCACCGAAAGGTGCGTATTGTCTATATTGTCT [R388 W(25+8), IRDye-labelled]”: in data set [4], the binding result is given as “binds”.

On to “CCCAATGCGCGGTGCGTATTGTCTATAGCCCAGATCCACCGCACCGCGCATTGGG [R388 H(24+31)]”, for which, in data set [2] (no cleavage value in Table 1, TrwCR 10 mM Tris pH 7.6, 375 mM …, folded or branched DNA), the binding result is reported as “binds”.

In the case of “CCCAATGCGCGGTGCGTATTGTCTATAGCCCAGATCGCACCGCGCATTGGG [R388 H(24+27)]”, the binding signal (% covalent complex) in data set [1] (not replicated) was 12. The binding result in data set [2] (setting [5]) was “binds”.

For “CTTCACCTATCCTGCCCGGCTGTACCTACGTGAAG [RP4 HP(14+21)]”, the binding result in data set [3] is “no binding”.
